Measured values reported in the supplement of paper PMC12823440, “Inhibitors supercharge kinase turnover through native proteolytic circuits” (Nature, 2025).
Structures can show the parent of a compound that is named as a salt. The list shows a part of the results. Hit calls seldom repeat between salt and free forms of one compound.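 Kinases, fused to nanoluciferase, were expressed in K562 cells; luminescence was measured every 4 h from 2 to 18 h as percent of control (DMSO = 100%, positive control = 0%). A time point is decreased if signal falls significantly (2 sigma). Hits were called by the authors by a rule that is not shown; the count of time points alone does not decide it.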

The chains behind the UniProt entries cited, without tags or fusion partners. Where a name states a change or a piece, a line headed by the entry shows the natural chain unless it says otherwise.
UniProt Q9UM73: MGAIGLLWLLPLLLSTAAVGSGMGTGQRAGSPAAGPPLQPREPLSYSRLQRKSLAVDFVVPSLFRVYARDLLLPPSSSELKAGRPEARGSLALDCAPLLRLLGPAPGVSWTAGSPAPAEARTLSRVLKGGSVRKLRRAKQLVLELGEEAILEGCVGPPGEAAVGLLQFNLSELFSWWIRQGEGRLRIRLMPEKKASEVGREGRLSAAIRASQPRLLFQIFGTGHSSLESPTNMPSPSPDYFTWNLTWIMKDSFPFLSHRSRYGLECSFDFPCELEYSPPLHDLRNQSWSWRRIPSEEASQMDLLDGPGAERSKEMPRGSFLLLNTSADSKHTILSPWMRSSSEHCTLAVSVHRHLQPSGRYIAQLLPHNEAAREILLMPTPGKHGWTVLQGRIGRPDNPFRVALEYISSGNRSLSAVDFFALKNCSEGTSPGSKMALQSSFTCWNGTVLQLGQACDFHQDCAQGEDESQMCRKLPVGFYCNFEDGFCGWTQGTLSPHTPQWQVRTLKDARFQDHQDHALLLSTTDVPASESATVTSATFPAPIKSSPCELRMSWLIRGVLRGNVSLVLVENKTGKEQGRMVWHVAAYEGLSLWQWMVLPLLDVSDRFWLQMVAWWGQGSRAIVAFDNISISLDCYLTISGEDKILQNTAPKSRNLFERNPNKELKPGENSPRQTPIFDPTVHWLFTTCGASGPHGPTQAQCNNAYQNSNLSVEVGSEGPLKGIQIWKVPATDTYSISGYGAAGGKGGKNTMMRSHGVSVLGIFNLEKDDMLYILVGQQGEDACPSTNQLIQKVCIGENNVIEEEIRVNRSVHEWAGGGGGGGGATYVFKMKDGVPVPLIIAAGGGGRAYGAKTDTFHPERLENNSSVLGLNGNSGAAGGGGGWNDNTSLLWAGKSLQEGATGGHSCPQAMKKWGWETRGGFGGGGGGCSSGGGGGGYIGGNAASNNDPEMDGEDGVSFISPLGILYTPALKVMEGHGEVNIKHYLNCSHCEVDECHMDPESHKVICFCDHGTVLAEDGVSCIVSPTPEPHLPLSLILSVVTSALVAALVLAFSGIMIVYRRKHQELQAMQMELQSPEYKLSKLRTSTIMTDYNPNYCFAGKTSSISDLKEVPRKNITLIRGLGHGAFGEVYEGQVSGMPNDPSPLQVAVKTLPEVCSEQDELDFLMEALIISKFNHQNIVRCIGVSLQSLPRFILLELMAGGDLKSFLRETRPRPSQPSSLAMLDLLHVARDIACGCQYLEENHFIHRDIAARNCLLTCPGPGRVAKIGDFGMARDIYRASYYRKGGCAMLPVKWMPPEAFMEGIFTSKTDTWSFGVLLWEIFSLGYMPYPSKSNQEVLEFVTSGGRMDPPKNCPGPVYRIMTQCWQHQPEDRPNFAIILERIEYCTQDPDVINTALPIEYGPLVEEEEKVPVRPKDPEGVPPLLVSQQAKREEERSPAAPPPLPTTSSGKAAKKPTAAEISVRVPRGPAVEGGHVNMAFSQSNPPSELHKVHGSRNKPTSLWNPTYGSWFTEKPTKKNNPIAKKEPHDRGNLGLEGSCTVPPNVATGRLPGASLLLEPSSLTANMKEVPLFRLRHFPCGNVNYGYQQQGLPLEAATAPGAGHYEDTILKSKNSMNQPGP
UniProt Q9UQB9: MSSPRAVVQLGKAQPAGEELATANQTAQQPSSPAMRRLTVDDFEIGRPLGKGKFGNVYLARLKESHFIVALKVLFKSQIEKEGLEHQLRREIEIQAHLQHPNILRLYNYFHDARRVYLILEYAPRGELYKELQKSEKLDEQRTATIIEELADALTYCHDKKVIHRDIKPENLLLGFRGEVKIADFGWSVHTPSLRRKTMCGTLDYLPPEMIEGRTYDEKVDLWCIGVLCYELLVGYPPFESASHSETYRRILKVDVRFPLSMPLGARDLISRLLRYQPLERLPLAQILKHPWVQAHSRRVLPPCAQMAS
UniProt P51451: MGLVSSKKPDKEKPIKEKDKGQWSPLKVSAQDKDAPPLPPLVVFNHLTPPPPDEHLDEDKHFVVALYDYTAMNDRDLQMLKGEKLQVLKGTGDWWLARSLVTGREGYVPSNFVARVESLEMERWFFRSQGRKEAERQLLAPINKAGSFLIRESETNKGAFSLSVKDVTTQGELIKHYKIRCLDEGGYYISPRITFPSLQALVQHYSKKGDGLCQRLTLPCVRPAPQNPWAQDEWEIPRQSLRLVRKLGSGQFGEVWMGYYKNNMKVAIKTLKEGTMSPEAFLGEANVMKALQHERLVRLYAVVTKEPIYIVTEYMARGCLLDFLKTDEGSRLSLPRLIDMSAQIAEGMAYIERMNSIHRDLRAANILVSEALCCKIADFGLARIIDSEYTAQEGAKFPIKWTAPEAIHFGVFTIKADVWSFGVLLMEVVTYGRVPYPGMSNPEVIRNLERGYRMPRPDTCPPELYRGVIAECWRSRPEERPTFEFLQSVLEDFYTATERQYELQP
UniProt P51813: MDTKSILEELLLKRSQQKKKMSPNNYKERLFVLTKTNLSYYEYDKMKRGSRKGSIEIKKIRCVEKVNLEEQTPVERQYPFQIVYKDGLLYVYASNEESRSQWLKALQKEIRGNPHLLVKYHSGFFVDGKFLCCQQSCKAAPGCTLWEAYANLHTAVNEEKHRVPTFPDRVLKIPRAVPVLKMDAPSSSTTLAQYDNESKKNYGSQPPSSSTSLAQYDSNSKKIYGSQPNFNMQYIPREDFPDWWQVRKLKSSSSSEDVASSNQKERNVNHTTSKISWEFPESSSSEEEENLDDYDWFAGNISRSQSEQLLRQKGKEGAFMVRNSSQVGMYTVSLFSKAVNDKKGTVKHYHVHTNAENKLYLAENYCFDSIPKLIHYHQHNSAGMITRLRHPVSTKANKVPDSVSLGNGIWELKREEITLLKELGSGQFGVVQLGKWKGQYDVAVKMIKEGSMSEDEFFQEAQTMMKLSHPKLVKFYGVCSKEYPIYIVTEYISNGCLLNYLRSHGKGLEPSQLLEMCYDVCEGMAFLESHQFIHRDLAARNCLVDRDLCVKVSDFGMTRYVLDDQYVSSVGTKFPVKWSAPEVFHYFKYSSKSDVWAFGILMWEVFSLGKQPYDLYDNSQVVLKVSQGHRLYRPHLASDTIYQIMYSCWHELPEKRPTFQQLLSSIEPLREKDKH
UniProt P15056, whole entry, looked up: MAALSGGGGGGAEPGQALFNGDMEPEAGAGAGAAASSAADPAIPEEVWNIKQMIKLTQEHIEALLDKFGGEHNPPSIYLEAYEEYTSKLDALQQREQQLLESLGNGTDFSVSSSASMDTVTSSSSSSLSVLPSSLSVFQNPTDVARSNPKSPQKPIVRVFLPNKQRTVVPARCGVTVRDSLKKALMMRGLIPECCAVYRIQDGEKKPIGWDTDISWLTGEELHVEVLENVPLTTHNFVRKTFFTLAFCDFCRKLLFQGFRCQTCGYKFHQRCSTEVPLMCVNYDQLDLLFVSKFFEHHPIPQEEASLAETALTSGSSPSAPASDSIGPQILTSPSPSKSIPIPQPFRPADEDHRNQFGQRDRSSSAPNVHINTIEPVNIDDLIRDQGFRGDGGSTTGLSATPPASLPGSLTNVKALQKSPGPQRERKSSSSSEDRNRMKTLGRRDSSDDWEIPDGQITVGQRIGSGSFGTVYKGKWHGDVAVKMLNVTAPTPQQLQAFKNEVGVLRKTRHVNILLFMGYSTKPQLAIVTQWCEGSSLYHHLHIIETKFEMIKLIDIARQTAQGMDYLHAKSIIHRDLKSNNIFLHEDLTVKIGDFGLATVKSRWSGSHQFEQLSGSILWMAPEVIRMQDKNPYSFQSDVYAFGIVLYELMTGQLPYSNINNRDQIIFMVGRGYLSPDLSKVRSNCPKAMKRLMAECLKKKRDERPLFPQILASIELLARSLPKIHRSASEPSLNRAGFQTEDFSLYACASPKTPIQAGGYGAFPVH
UniProt Q06187: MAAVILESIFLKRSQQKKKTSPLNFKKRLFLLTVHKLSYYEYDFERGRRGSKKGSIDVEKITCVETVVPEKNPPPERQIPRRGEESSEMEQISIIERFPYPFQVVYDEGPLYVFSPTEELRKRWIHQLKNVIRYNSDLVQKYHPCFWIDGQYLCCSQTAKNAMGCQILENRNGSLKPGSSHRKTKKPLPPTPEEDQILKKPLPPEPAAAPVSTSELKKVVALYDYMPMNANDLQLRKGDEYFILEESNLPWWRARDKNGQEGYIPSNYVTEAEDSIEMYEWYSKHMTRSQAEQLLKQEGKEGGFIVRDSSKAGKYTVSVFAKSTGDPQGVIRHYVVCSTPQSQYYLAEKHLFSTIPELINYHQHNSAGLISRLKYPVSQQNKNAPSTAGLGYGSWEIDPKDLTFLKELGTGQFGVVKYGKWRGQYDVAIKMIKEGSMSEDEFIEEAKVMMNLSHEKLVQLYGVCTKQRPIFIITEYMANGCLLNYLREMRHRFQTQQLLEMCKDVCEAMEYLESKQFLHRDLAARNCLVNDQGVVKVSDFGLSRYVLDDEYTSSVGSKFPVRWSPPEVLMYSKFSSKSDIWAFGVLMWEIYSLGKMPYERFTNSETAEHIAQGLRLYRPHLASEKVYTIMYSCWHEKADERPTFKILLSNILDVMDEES
UniProt Q9UQM7, whole entry: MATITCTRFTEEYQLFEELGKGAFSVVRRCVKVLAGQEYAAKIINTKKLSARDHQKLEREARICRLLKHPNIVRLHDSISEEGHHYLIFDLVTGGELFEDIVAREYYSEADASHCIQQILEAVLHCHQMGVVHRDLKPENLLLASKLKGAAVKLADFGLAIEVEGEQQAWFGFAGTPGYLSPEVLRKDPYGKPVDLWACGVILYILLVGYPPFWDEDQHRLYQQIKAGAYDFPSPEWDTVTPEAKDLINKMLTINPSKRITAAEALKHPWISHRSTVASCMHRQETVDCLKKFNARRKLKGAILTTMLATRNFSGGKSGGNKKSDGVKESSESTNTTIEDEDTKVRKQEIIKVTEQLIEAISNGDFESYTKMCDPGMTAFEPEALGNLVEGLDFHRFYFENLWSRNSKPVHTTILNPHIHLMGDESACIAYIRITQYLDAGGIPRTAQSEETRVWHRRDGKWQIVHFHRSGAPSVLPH
UniProt Q13555: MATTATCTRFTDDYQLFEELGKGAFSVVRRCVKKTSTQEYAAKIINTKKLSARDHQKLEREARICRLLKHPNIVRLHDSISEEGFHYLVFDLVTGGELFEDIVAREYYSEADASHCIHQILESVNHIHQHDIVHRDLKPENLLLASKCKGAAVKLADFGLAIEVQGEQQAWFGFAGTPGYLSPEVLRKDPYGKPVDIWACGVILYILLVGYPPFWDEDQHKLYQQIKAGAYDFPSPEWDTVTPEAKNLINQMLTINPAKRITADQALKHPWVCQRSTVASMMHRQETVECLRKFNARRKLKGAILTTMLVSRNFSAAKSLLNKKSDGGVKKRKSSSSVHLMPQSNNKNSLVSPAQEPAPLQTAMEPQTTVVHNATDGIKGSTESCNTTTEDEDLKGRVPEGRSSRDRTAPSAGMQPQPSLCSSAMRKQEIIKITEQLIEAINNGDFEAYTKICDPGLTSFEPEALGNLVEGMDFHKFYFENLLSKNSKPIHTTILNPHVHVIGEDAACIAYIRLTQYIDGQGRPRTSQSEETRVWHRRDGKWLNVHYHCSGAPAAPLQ
UniProt Q15131: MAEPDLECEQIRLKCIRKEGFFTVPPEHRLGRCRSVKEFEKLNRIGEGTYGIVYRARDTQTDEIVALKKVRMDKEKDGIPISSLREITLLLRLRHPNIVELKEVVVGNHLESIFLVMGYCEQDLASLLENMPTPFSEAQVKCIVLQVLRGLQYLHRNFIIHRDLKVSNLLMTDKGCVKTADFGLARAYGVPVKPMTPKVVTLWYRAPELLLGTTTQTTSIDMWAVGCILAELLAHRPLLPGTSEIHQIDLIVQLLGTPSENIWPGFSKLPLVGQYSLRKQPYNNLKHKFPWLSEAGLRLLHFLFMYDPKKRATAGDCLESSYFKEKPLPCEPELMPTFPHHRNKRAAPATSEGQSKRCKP
UniProt Q00534, whole entry: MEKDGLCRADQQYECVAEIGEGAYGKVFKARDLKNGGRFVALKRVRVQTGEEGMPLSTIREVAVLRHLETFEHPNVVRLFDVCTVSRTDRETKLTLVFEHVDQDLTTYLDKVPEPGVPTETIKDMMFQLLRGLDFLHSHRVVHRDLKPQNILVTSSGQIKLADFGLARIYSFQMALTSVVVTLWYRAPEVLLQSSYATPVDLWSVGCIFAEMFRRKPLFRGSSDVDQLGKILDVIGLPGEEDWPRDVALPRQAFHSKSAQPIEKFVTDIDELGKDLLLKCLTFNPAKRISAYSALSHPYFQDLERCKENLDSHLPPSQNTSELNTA
UniProt Q00535, whole entry, looked up: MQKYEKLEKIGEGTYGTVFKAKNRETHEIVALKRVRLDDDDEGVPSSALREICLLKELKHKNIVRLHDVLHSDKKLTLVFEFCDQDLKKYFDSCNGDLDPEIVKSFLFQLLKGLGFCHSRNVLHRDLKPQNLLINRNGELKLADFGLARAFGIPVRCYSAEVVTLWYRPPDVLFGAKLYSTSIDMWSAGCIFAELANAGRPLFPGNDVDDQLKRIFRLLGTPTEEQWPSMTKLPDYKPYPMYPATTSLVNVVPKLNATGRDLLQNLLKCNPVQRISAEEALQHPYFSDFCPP

Columns and labels:
Assay in all cases: kinase-Nluc reporter destabilization hit call (1 = scored as downregulated) (binary); higher = compound decreases kinase abundance
Conditions in all cases: K562, 2-18 h
ABL1 = ABL1 (UniProt P00519)
AKT1 = AKT1 (UniProt P31749)
ALK = ALK (UniProt Q9UM73)
ARAF = ARAF (UniProt P10398)
AURKA = AURKA (UniProt O14965)
AURKB = AURKB (UniProt Q96GD4)
AURKC = AURKC (UniProt Q9UQB9)
BLK = BLK (UniProt P51451)
BMX = BMX (UniProt P51813)
BRAF = BRAF (UniProt P15056)
BRAF_V600E = system: BRAF_V600E
BTK = BTK (UniProt Q06187)
CAMK2A = CAMK2A (UniProt Q9UQM7)
CAMK2G = CAMK2G (UniProt Q13555)
CDK10 = CDK10 (UniProt Q15131)
CDK2 = CDK2 (UniProt P24941)
CDK3 = CDK3 (UniProt Q00526)
CDK4 = CDK4 (UniProt P11802)
CDK6 = CDK6 (UniProt Q00534)
CDK5 = CDK5 (UniProt Q00535)

Measured: kinase-Nluc reporter destabilization hit call

OCCn1cc(-c2cnc3nnn(Cc4ccc5ncccc5c4)c3n2)cn1
inactive: ABL1; 10 µM 0 | AKT1; 10 µM 0 | ALK; 10 µM 0 | ARAF; 10 µM 0 | AURKA; 10 µM 0 | AURKB; 10 µM 0 | AURKC; 10 µM 0 | BLK; 10 µM 0 | BMX; 10 µM 0 | BRAF; 10 µM 0 | BRAF_V600E; 10 µM 0 | BTK; 10 µM 0 | CAMK2A; 10 µM 0 | CAMK2G; 10 µM 0 | CDK10; 10 µM 0 | CDK2; 10 µM 0 | CDK3; 10 µM 0 | CDK4; 10 µM 0 | CDK6; 10 µM 0

COc1ccc2c(c1)C(c1ccc(F)cc1)=C(CN1CCCC1)CO2
inactive: ABL1; 10 µM 0 | AKT1; 10 µM 0 | ALK; 10 µM 0 | ARAF; 10 µM 0 | AURKA; 10 µM 0 | AURKB; 10 µM 0 | AURKC; 10 µM 0 | BLK; 10 µM 0 | BMX; 10 µM 0 | BRAF; 10 µM 0 | BRAF_V600E; 10 µM 0 | BTK; 10 µM 0 | CAMK2A; 10 µM 0 | CAMK2G; 10 µM 0 | CDK10; 10 µM 0 | CDK2; 10 µM 0 | CDK3; 10 µM 0 | CDK4; 10 µM 0 | CDK5; 10 µM 0 | CDK6; 10 µM 0

C=CC(=O)Nc1cc(Nc2nccc(-c3cn(C)c4ccccc34)n2)c(OC)cc1N(C)CCN(C)C [Osimertinib mesylate]
inactive: ABL1; 2.5 µM 0 | AKT1; 2.5 µM 0 | ALK; 2.5 µM 0 | ARAF; 2.5 µM 0 | AURKA; 2.5 µM 0 | AURKB; 2.5 µM 0 | AURKC; 2.5 µM 0 | BMX; 2.5 µM 0 | BRAF; 2.5 µM 0 | BRAF_V600E; 2.5 µM 0 | BTK; 2.5 µM 0 | CAMK2A; 2.5 µM 0 | CAMK2G; 2.5 µM 0 | CDK10; 2.5 µM 0 | CDK2; 2.5 µM 0 | CDK3; 2.5 µM 0 | CDK4; 2.5 µM 0 | CDK5; 2.5 µM 0 | CDK6; 2.5 µM 0
active: BLK; 2.5 µM 1

CC(=O)Nc1cccc(-n2c(=O)n(C3CC3)c(=O)c3c(Nc4ccc(I)cc4F)n(C)c(=O)c(C)c32)c1 [Trametinib]
inactive: ABL1; 10 µM 0 | AKT1; 10 µM 0 | ALK; 10 µM 0 | ARAF; 10 µM 0 | AURKA; 10 µM 0 | AURKB; 10 µM 0 | AURKC; 10 µM 0 | BLK; 10 µM 0 | BMX; 10 µM 0 | BRAF_V600E; 10 µM 0 | BTK; 10 µM 0 | CAMK2A; 10 µM 0 | CAMK2G; 10 µM 0 | CDK10; 10 µM 0 | CDK2; 10 µM 0 | CDK3; 10 µM 0 | CDK4; 10 µM 0 | CDK5; 10 µM 0 | CDK6; 10 µM 0
active: BRAF; 10 µM 1

C#Cc1cccc(Nc2ncnc3cc(OCCOC)c(OCCO)cc23)c1 [Desmethyl Erlotinib]
inactive: ABL1; 10 µM 0 | AKT1; 10 µM 0 | ALK; 10 µM 0 | ARAF; 10 µM 0 | AURKA; 10 µM 0 | AURKB; 10 µM 0 | AURKC; 10 µM 0 | BLK; 10 µM 0 | BMX; 10 µM 0 | BRAF; 10 µM 0 | BRAF_V600E; 10 µM 0 | BTK; 10 µM 0 | CAMK2A; 10 µM 0 | CAMK2G; 10 µM 0 | CDK10; 10 µM 0 | CDK2; 10 µM 0 | CDK3; 10 µM 0 | CDK4; 10 µM 0 | CDK5; 10 µM 0 | CDK6; 10 µM 0

COc1cc2c(-c3cnn4cc(N5CCC(N6CCN(C)CC6)CC5)cnc34)ccnc2cc1F
inactive: ABL1; 10 µM 0 | AKT1; 10 µM 0 | ALK; 10 µM 0 | ARAF; 10 µM 0 | AURKA; 10 µM 0 | AURKB; 10 µM 0 | AURKC; 10 µM 0 | BLK; 10 µM 0 | BMX; 10 µM 0 | BRAF; 10 µM 0 | BRAF_V600E; 10 µM 0 | BTK; 10 µM 0 | CAMK2A; 10 µM 0 | CAMK2G; 10 µM 0 | CDK10; 10 µM 0 | CDK2; 10 µM 0 | CDK3; 10 µM 0 | CDK4; 10 µM 0 | CDK5; 10 µM 0 | CDK6; 10 µM 0
